The results in this text go back to PMC1817651.

Chains of the proteins cited; added tags and fusions are not shown. Lines headed by an entry give the natural chain unless they say otherwise; changes in a name come on top.
UniProt P17676: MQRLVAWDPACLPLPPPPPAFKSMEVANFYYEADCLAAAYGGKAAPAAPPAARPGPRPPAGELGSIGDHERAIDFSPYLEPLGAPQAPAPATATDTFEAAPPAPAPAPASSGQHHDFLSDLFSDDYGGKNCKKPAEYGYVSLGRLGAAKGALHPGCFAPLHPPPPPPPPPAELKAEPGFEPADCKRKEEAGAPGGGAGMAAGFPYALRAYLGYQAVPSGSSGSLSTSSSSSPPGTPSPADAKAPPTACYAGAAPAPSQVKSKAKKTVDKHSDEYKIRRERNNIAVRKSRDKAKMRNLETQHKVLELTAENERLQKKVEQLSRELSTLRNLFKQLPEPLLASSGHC
UniProt P49715, whole entry: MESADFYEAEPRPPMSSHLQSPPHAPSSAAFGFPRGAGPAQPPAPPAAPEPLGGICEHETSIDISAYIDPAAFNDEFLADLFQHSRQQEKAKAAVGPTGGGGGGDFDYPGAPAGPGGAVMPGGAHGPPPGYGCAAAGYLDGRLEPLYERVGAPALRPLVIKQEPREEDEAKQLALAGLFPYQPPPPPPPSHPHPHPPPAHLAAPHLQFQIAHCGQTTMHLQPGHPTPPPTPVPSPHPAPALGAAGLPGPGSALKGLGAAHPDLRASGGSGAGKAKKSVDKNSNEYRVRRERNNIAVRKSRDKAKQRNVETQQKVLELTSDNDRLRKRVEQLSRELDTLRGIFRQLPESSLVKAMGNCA

Construct, isoform or probe ends are uncertain for at least one entry. At least one result comes from cells or an extract, where the contact may be indirect. For some assays here: A negative result means that nothing was seen under these conditions. For some assays here: The comparison behind a weaker result is the experiment's own reference, which may not be listed here.

The target in series [1] is C/EBP-beta (endogenous) (UniProt P17676). Briefly: competition EMSA. The conditions noted are these: 250-fold excess vs N8, JEG-3 extract; EMSA: 35 fmol probe, 2 ug Ets-2-GST or 10 ug JEG-3 extract; protein in an extract; label: none (competitor).
Series [2] has the same target. Briefly: competition pull-down. The conditions noted are these: 250-fold excess vs N10, JEG-3 extract; EMSA: 35 fmol probe, 2 ug Ets-2-GST or 10 ug JEG-3 extract; protein in an extract; label: none (competitor). Background: In EMSA bound probe runs differently from free probe, usually more slowly.
For series [3] the target is unchanged. Briefly: pull-down, immunoblot. The conditions noted are these: JEG-3 extract, pull-down: extract in 25 mM Tris-HCl pH 7.5, 150 mM NaCl, 0.5% Triton X-100, 0.5 mM DTT, 4 C overnight, protein in an extract, label: 3' biotin on sense strand. On the technique in general: Immunoblotting shows a protein as a band on a membrane.
In series [4] the test system is Ets-2 (endogenous) + C/EBP-beta (endogenous). Nature of the series: pull-down, immunoblot. Particulars: Ets-2 via C/EBP-beta, competed by unlabeled wild type; pull-down: extract in 25 mM Tris-HCl pH 7.5, 150 mM NaCl, 0.5% Triton X-100, 0.5 mM DTT, 4 C overnight; protein in an extract; label: 3' biotin on sense strand.
The target of another series is C/EBP-alpha (endogenous) (UniProt P49715). Nature of the series: EMSA supershift. Particulars: JEG-3 extract, minor effect; EMSA: 35 fmol probe, 2 ug Ets-2-GST or 10 ug JEG-3 extract; protein in an extract; label: 32P.
Series [5] deals with C/EBP-beta (endogenous) (UniProt P17676). Nature of the series: EMSA supershift. Particulars: JEG-3 extract, self-competed by 250-fold excess; EMSA: 35 fmol probe, 2 ug Ets-2-GST or 10 ug JEG-3 extract; protein in an extract; label: 32P.
A further series relates to Fos B (endogenous). Briefly: pull-down, immunoblot. The conditions noted are these: JEG-3 extract, pan-Fos; pull-down: extract in 25 mM Tris-HCl pH 7.5, 150 mM NaCl, 0.5% Triton X-100, 0.5 mM DTT, 4 C overnight; protein in an extract; label: 3' biotin on sense strand.
Another series relates to c-Fos (endogenous). Briefly: pull-down, immunoblot. The conditions noted are these: JEG-3 extract, pan-Fos; pull-down: extract in 25 mM Tris-HCl pH 7.5, 150 mM NaCl, 0.5% Triton X-100, 0.5 mM DTT, 4 C overnight; protein in an extract; label: 3' biotin on sense strand.
The next series concerns Fra-1 (endogenous). Briefly: pull-down, immunoblot. The conditions noted are these: JEG-3 extract, pan-Fos; pull-down: extract in 25 mM Tris-HCl pH 7.5, 150 mM NaCl, 0.5% Triton X-100, 0.5 mM DTT, 4 C overnight; protein in an extract; label: 3' biotin on sense strand.
For a further series, the system named is Fra-2 (endogenous). Briefly: pull-down, immunoblot. Particulars: JEG-3 extract, pan-Fos; pull-down: extract in 25 mM Tris-HCl pH 7.5, 150 mM NaCl, 0.5% Triton X-100, 0.5 mM DTT, 4 C overnight; protein in an extract; label: 3' biotin on sense strand.

With “AGGTAGGGAGGTTATCCCCCAAACAGGACT (double strand) [mut C/EBP]”, the binding result in the series with C/EBP-beta (endogenous) [1] and with C/EBP-beta (endogenous) [2] was “no binding” in each case.
For the sequence “AGGTAGGGAGGTTATGCAATAAACAGGACT (double strand) [biotinylated C/EBP oligo]”, the binding result (with C/EBP-beta (endogenous) [3] (competed by unlabeled wild type); in series [4]) was “binds” each time.
Consider “AGGTAGGGAGGTTATGCAATAAACAGGACT (double strand) [wt C/EBP (EMSA)]”, for which the values for the binding result with C/EBP-alpha (endogenous) and with C/EBP-beta (endogenous) [5] were “binds more weakly” and “binds”, respectively.
As to “TAAACAGGACTGACTCAACTCCTCCCC (double strand) [biotinylated AP-1 oligo]”, the binding result with C/EBP-beta (endogenous) [3] (possibly indirect) is “binds”; in the series on Fos B (endogenous), “no binding”; in the series with c-Fos (endogenous) it was “no binding”; with Fra-1 (endogenous), “no binding”; with Fra-2 (endogenous), “no binding”.
